# Measured values taken from PubChem BioAssay AID445 (National Center for Advancing Translational Sciences (NCATS), 2006).
# The other results are listed elsewhere or left out. Further columns of the screen follow, without active or inactive calls. Compounds called inactive in the main read-out are mostly missing here. Potencies come from curve fits of mixed quality, noted in brackets.
# Assay: IkB Signaling
# Details: ABC-DLBCL IkBa-CBG/CBR dual luciferase ratio (green luciferase fused to IkBa over red control in OCI-Ly3 lymphoma cells), 4 h
# Summary of the method: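 Curves were fitted separately to fusion (green), unfused (red) and ratio luminescence, then classed by r2, magnitude and activity. Cells: OCI-Ly3, 4 h compound plus doxycycline at 37C; 10 uM MG-132 defined full response.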
# [1] = measured here: control luc red channel unless noted
smiles,measurement,setting,value
Cc1cc(C)c2c(=O)cc(C(=O)Nc3ccc(S(=O)(=O)Nc4nc(C)cc(C)n4)cc3)oc2c1,AC50,[1],"39.8 µM [falling, single point]"
O=C(O)CCc1ccc(-c2cccs2)n1-c1ccc(C(=O)O)cc1,AC50,[1],"10 µM [falling, partial curve]"
CCOc1ccc(NC(=O)N2CCOc3ccccc32)cc1,AC50,[1],"3.98 µM [falling, full curve]"
O=C(C1CCN(S(=O)(=O)c2ccc(F)cc2)CC1)N1CC=C(c2ccccc2)CC1,AC50,[1],"25.1 µM [falling, partial curve]"
Cc1ccnc(NC(c2ccccc2F)c2ccc3cccnc3c2O)c1 (configuration not stated),AC50,[1],"5.01 µM [falling, full curve]"
CCCOc1ccccc1Cn1c(=O)sc2ccccc21,AC50,[1],"25.1 µM [falling, single point]"
COc1ccc(NC(=O)c2cc(C(C)C)on2)cc1OC,AC50,[1],"10 µM [falling, partial curve]"
Cc1ccc(N2CCn3c2nc2c3c(=O)n(CCc3ccccc3)c(=O)n2C)cc1C,AC50,[1],"20 µM [falling, partial curve]"
Cc1cc(C(=O)CSc2nncs2)c(C)n1-c1ccc2c(c1)OCO2,AC50,[1],"25.1 µM [falling, single point]"
CCOc1ccc(NC(=O)CN2C(=O)COc3ccc(S(=O)(=O)Nc4ccccc4)cc32)cc1,AC50,[1],"31.6 µM [falling, partial curve, poor fit]"
Cc1ccc(C(=O)c2coc3ccc(OCC(=O)O)cc23)cc1,AC50,[1],"15.8 µM [falling, partial curve]"
COc1ccccc1NC(=O)CSc1nnnn1-c1ccc2c(c1)OCO2,AC50,[1],"25.1 µM [falling, partial curve]"
COc1ccc(Cl)c(Cn2c(NCCN)nc3c2c(=O)n(C)c(=O)n3C)c1,AC50,[1],"0.1 µM [rising, full curve, poor fit]"
Cn1cc(S(=O)(=O)Nc2ccc(Br)cc2F)c(=O)n(C)c1=O,AC50,measured here: IkB-luc green channel,"25.1 µM [falling, partial curve, poor fit]"
same,AC50,measured here: control luc red channel,"12.6 µM [falling, partial curve]"
COc1cccc(-c2nnc3n(Cc4ccc(F)cc4)c(=O)c4ccccc4n23)c1,AC50,[1],"25.1 µM [falling, single point]"
COc1cc(NC(=O)c2cccs2)c(C(=O)OCC(=O)NCc2ccco2)cc1OC,AC50,[1],"15.8 µM [falling, partial curve]"
CC1=C(C(=O)Nc2ccc(C)cc2C)C(c2ccccc2C)n2ncnc2N1 (configuration not stated),AC50,[1],"2.51 µM [falling, full curve]"
Cc1cccc(-c2nc3c(C#N)c[nH]n3c2NC2CCCCC2)c1,AC50,[1],"10 µM [falling, partial curve]"
COc1cc(NC(=O)c2noc3c2CCc2ccccc2-3)cc(OC)c1OC,AC50,[1],"10 µM [falling, partial curve]"
Cc1nn(-c2ccc3nncn3n2)c(C)c1CCC(=O)Nc1ccc(OC(F)(F)F)cc1,AC50,[1],"7.94 µM [rising, full curve, poor fit]"
c1ccc(-n2nnc3cnccc32)cc1,AC50,[1],"1.26 µM [falling, full curve]"
CCCCN(C)CCNC(=O)c1cc(-c2cccnc2)nc2ccc(S(=O)(=O)N3CCC(C)CC3)cc12,AC50,[1],"25.1 µM [falling, single point]"
O=C(COc1ccccc1F)Nc1ccc(C(=O)OCc2cc(=O)n3nc(C4CC4)sc3n2)cc1,AC50,[1],"7.94 µM [rising, single point]"
Cc1ccc(NC(=O)CCSCCc2ccccn2)cc1,AC50,[1],"15.8 µM [falling, partial curve]"
CCc1ccc(-n2c(C)nnc2SCc2nc(-c3ccc(OC)cc3)no2)cc1,AC50,[1],"25.1 µM [falling, partial curve]"
O=C(Nc1ccc(Cl)cc1Cl)c1cc(S(=O)(=O)N2CCN(c3ccccc3F)CC2)ccc1F,AC50,[1],"3.98 µM [falling, full curve]"
CCOC(=O)Cc1csc(NC(=O)c2csc3c2CCCC3)n1,AC50,[1],"1.58 µM [falling, full curve]"
Cc1cccc(-c2nnc(-c3ccccc3)o2)c1,AC50,[1],"20 µM [falling, single point]"
Cc1ccc(S(=O)(=O)n2nc(OC(=O)c3cccs3)cc2N)cc1,AC50,[1],"39.8 µM [rising, partial curve] [measured here: IkB-luc green channel]"
O=S(=O)(c1ccccc1)N1CCN(c2ncnc3sc(-c4ccccc4)cc23)CC1,AC50,[1],"10 µM [falling, partial curve]"
CC(C)(C)OC(=O)N1CCC(c2c(C(=O)NCc3ccc4c(c3)OCO4)cnn2-c2ccc(F)cc2F)CC1,AC50,[1],"15.8 µM [falling, partial curve]"
COc1ccc(CNC(=O)c2ccc3c(c2)N(Cc2ccccc2)C(=O)c2ccccc2S3(=O)=O)cc1,AC50,[1],"7.94 µM [falling, full curve]"
CCOc1ccccc1-c1nnc(SCc2ccc(Cl)cc2)o1,AC50,[1],"31.6 µM [falling, single point]"
Cc1nn(Cc2ccccc2Cl)c(C)c1NC(=O)c1noc2c1CCCCC2,AC50,[1],"2.51 µM [falling, full curve, poor fit]"
CCCN(C(=O)c1cc2c(Cl)nc3ccccc3c2s1)c1cccc(C)c1,AC50,[1],"3.98 µM [falling, full curve]"
COc1ccc(Cl)cc1Nc1sc(C(=O)c2ccccc2)c(N)c1C(=O)Nc1ccccc1,AC50,[1],"15.8 µM [falling, partial curve]"
Clc1ccc(Cn2ncc3c(N4CCCCC4)ncnc32)cc1,AC50,[1],"15.8 µM [falling, partial curve]"
CCc1c(C)sc2c1CCN(Cc1cccc(F)c1)C2c1ccccc1 (configuration not stated),AC50,[1],"25.1 µM [falling, single point]"
CCCN(C/C=C\I)[C@@H]1CCc2cccc(O)c2C1,AC50,[1],"63.1 µM [falling, partial curve, poor fit]"
COc1ccc(NS(=O)(=O)c2ccc3oc4ccccc4c3c2)cn1,AC50,[1],"15.8 µM [falling, partial curve]"
Cc1ccc(Nc2nc(N)nc(CN3CCN(c4ccccc4F)CC3)n2)cc1,AC50,[1],"10 µM [falling, partial curve]"

# Some of the entries so far, bar-delimited:
smiles | measurement | setting | value
Cc1cc(C)c2c(=O)cc(C(=O)Nc3ccc(S(=O)(=O)Nc4nc(C)cc(C)n4)cc3)oc2c1 | AC50 | [1] | 39.8 µM [falling, single point]
CCCOc1ccccc1Cn1c(=O)sc2ccccc21 | AC50 | [1] | 25.1 µM [falling, single point]
COc1ccc(NC(=O)c2cc(C(C)C)on2)cc1OC | AC50 | [1] | 10 µM [falling, partial curve]
Cc1cc(C(=O)CSc2nncs2)c(C)n1-c1ccc2c(c1)OCO2 | AC50 | [1] | 25.1 µM [falling, single point]
Cc1ccc(C(=O)c2coc3ccc(OCC(=O)O)cc23)cc1 | AC50 | [1] | 15.8 µM [falling, partial curve]
Cc1cccc(-c2nc3c(C#N)c[nH]n3c2NC2CCCCC2)c1 | AC50 | [1] | 10 µM [falling, partial curve]
COc1cc(NC(=O)c2noc3c2CCc2ccccc2-3)cc(OC)c1OC | AC50 | [1] | 10 µM [falling, partial curve]
O=C(Nc1ccc(Cl)cc1Cl)c1cc(S(=O)(=O)N2CCN(c3ccccc3F)CC2)ccc1F | AC50 | [1] | 3.98 µM [falling, full curve]
CCOc1ccccc1-c1nnc(SCc2ccc(Cl)cc2)o1 | AC50 | [1] | 31.6 µM [falling, single point]
CCCN(C(=O)c1cc2c(Cl)nc3ccccc3c2s1)c1cccc(C)c1 | AC50 | [1] | 3.98 µM [falling, full curve]
CCc1c(C)sc2c1CCN(Cc1cccc(F)c1)C2c1ccccc1 (configuration not stated) | AC50 | [1] | 25.1 µM [falling, single point]
